Source: paper PMC11520303
Results are given in words; binding and its absence hold for the method and conditions named. In cells and extracts the contact can be indirect. Binding can be weak; no strength is given.

Biological target: C1_01140Cp-GFPy (Candida albicans SC5314)
Assay: co-IP; Dual-tagged C. albicans strains grown 14 h in YPD; cells cross-linked with 1 mM dithiobis(succinimidyl propionate) in PBS for 30 min before lysis; 2 mg lysate protein incubated with anti-GFP (TrueMAB tGFP) monoclonal antibody magnetic beads for 2 h at 4°C; washed in 20 mM Tris-HCl, 150 mM NaCl, 0.5 mM EDTA, 10 mM MgCl2; prey detected by anti-tdTomato western blot; untagged SC5314 as negative control

binding: binds
B1: CaGsy1p-tdTomato (enzyme, UniProt Q5A850 1-661)
chain: MARDIDNHLLFEVATEVAHKVGGIYSVLKSKAPVTVAEYRERYTLLGPLHYDSAQIEVEELPVTDPHIKQTLDSMSSKGIRWLYGRWLIEGAPRVLLFDIWSAGHYLNEWKADLWNVAGIPTPDHDSETNDAILLGYLVAWFLGELVYNDRDRAVICQCHEWLAGIALPLCRKRRIDVTTIFTTHATLLGRYLCAGSTDFYNNLDKFDVDAEAGKRGIYHRYCIERSATHSADVFTTVSDITAYEAEHLLKRKPDGVLPNGLNVVKFQAVHEFQNLHAIKKAKINEFVKGHFYGNYDFDLDNTLYFFIAGRYEFRNKGCDFFIESLARLNHKLKEAGSKTTVVAFIIMPGKTQSYTVETLKGQAVVKQLESTIGEVQKKVGERLFEYCARYPNTDHHGNDEVPTIDELIKPADRVLLKRRIFALKRDGLPPIVTHNMVDDSTDPVLNHIRRVQLFNKPEDRVKIIFHPEFLNANNPILSLDYDEFVRGCHLGVFPSYYEPWGYTPAECTVMGIPSITTNLSGFGCYMNDLVENPTDYGIYIVDRRMKSVDESINQLTDYMFDFCAKSRRQRINQRNRTERLSVLLDWRSVHSEYSKARLLALKRAYPDYVGEKVVESKMKITRPMSVPGSPRSLLLTPGDLGSLQDANQDISYFELGEEET
